{"source": "PubChem BioAssay AID1688", "about": "(National Center for Advancing Translational Sciences (NCATS), 2009)", "note": "The whole screen tested about 220,000 compounds, of which about 2,400 (1.1%) were called active. The shares of active, inactive and inconclusive entries below differ from those in the screen. Calls come from the whole dose curve; as a rule, active = well fitted inhibition curve with a large enough effect; inconclusive = small, poorly fitted or top-dose-only effect, or effect the other way; inactive = no such curve, though single readings can be large or run the other way. Where the call is inconclusive, the potency comes from a doubtful curve fit. % is set by controls: 0 for no effect and ±100 for the full control effect; potency is the fitted concentration of half-maximal effect.", "data": [{"assay": "qHTS Multiplex Assay to Identify Dual Action Probes in a Cell Model of Huntington: Aggregate Formation (GFP); note: nearly all actives have a fitted effect of over 60% in size", "details": "PC12 HttQ103-GFP aggregates, Acumen cytometry, 40 h; activity change, negative = inhibition: at 46.1 µM (top of the series) unless noted", "summary_of_the_method": "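Using laser scanning cytometry, GFP-positive aggregates were counted after lysis of PC12 cells induced with 100 nM tebufenozide to express HTT exon 1 Q103–GFP. Compounds were tested in titration.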", "values": [{"smiles": "CN(CC(=O)Nc1ccc(Cl)c(C(F)(F)F)c1)C(=O)/C=C/c1ccco1", "Potency": "inconclusive: 12.6 µM [activator, single point]"}, {"smiles": "O=C(c1ncc[nH]1)c1ccccc1C(=O)N1CCOCC1", "Potency": "inconclusive: 5.62 µM [inhibitor, single point]"}, {"smiles": "CC(=O)Nc1ccc(NC(=O)C2CCCCC2C(=O)O)cc1", "note": "(stereo not drawn)", "Potency": "inconclusive: 6.31 µM [inhibitor, single point]"}, {"smiles": "Cc1ccc(S(=O)(=O)N(C(=O)c2ccncc2)c2ccc(OC(=O)c3ccncc3)c3ccccc23)c(C)c1", "Potency": "inconclusive: 25.1 µM [inhibitor, single point]"}, {"smiles": "CN(C)c1ccnc2sc3c(=O)n(Cc4ccccc4)cnc3c12", "Potency": "active: 7.08 µM"}, {"smiles": "Cc1cc(-c2nnc3n2CCCCC3)c(C)n1-c1ccccc1", "Potency": "inconclusive: 2.51 µM [activator, full curve]"}, {"smiles": "Clc1ccc(-c2csc(NNC3=NCCCCC3)n2)cc1", "activity change, negative = inhibition": "inactive: -4.79%"}, {"smiles": "Cc1c(Cl)cccc1-n1c(SCC(=O)NCc2ccccc2Cl)nnc1-c1ccncc1", "Potency": "inconclusive: 5.62 µM [inhibitor, single point]"}, {"smiles": "COC(=O)Cn1c2ccc(Cl)cc2c2nc(C)sc21", "activity change, negative = inhibition": "inactive: -23.3% [at 9.22 µM]"}, {"smiles": "CN(CCC#N)S(=O)(=O)c1ccc2[nH]cc(C(=O)NCCc3ccccc3)c(=O)c2c1", "activity change, negative = inhibition": "inactive: 0.38%"}, {"smiles": "O=C(c1ccccc1)c1coc2ccc(O)c(Cl)c12", "activity change, negative = inhibition": "inactive: -28.3%"}, {"smiles": "Cc1ccccc1Nc1nnc(SCc2cc([N+](=O)[O-])cc3c2OCOC3)s1", "Potency": "active: 17.8 µM"}, {"smiles": "CC(=O)Oc1ccc2c(=O)c(Oc3ccccc3[N+](=O)[O-])coc2c1", "activity change, negative = inhibition": "inactive: -0.472%"}, {"smiles": "Oc1ccc(/C=C/c2ccnc3ccccc23)cc1", "Potency": "inconclusive: 5.62 µM [inhibitor, full curve, poor fit]"}, {"smiles": "O=C(O)CCC(=O)Nc1ccc(C(=O)OCC(=O)c2ccc(Cl)cc2)cc1", "activity change, negative = inhibition": "inactive: -7.34% [at 9.22 µM]"}, {"smiles": "COc1ccc(C(=O)C2CCCN(C(=O)c3noc4c3CCCC4)C2)c(C)c1", "note": "(stereo not drawn)", "activity change, negative = inhibition": "inactive: 4.41% [at 9.22 µM]"}, {"smiles": "CCN(CC(=O)Nc1c(C(=O)OC)[nH]c2ccc(Cl)cc12)c1ccc2c(c1)OCO2", "Potency": "inconclusive: 25.1 µM [inhibitor, single point]"}, {"smiles": "Cc1ccc(C)c(NC(=O)CN(C)C(=O)[C@@H](NC(=O)c2ccc(C(C)(C)C)cc2)C(C)C)c1", "Potency": "inconclusive: 35.5 µM [inhibitor, single point]"}, {"smiles": "CCOCCCn1c(=N)c(C(=O)NCc2ccc3c(c2)OCO3)cc2c(=O)n3ccccc3nc21", "Potency": "inconclusive: 1.58 µM [activator, partial curve]"}, {"smiles": "Cc1ccc(/C=C/C(O)=C2/C(=O)N(C)C3(C)CC2c2ccccc2O3)cc1", "note": "(stereo not drawn)", "Potency": "inconclusive: 35.5 µM [inhibitor, single point]"}, {"smiles": "OC(COCc1ccc(Cl)cc1)CN1CCN(c2ccccn2)CC1", "note": "(stereo not drawn)", "Potency": "inconclusive: 0.562 µM [activator, full curve, poor fit]"}, {"smiles": "O=C(Nc1cnn(Cc2ccc(Cl)cc2)c1)C1CCCC1", "Potency": "active: 0.794 µM"}, {"smiles": "Cc1cc(OCc2cccc(Cl)c2)c(C)cc1CN1CCOCC1", "Potency": "inconclusive: 1.26 µM [activator, single point]"}, {"smiles": "O=C1Nc2ccc(Cl)cc2C12Nc1ccccc1-c1nnc(SCc3ccccc3F)nc1O2", "note": "(stereo not drawn)", "activity change, negative = inhibition": "inactive: 2.28%"}, {"smiles": "O=c1[nH]sc2ccccc12", "Potency": "inconclusive: 35.5 µM [inhibitor, single point]"}, {"smiles": "CCCCCOC(=O)Nc1ccc(S(=O)(=O)Nc2cccc([N+](=O)[O-])c2)cc1", "Potency": "inconclusive: 11.2 µM [inhibitor, partial curve]"}, {"smiles": "CCOC(=O)Cc1csc(NC(=O)COc2ccc(C)c(C)c2)n1", "Potency": "inconclusive: 2.51 µM [activator, partial curve]"}, {"smiles": "Cc1[nH]n(-c2ccccc2)c(=O)c1/C=N/N1C(=O)c2ccc3c4c(ccc(c24)C1=O)CC3", "Potency": "inconclusive: 35.5 µM [inhibitor, single point]"}, {"smiles": "Cc1ccc(Nc2nnc(SCC(=O)NC(Cc3c[nH]c4ccccc34)C(=O)O)s2)cc1", "note": "(stereo not drawn)", "Potency": "inconclusive: 3.16 µM [activator, partial curve]"}, {"smiles": "COc1ccc(-c2cc(N)n(S(=O)(=O)c3c(F)c(F)c(F)c(F)c3F)n2)cc1OC", "Potency": "inconclusive: 35.5 µM [inhibitor, single point]"}, {"smiles": "CN1CCN(C(=O)c2cc3nc(-c4ccc(F)cc4)cc(C(F)(F)F)n3n2)CC1", "activity change, negative = inhibition": "inactive: -19.5%"}, {"smiles": "CC(C)Nc1ncnc2c1nnn2Cc1ccccc1", "Potency": "inconclusive: 7.08 µM [inhibitor, full curve]"}, {"smiles": "O=C(OC(C(=O)Nc1ccc(Cl)cc1C(F)(F)F)c1ccccc1)c1c(Cl)cccc1Cl", "note": "(stereo not drawn)", "activity change, negative = inhibition": "inactive: -6.55%"}, {"smiles": "O=C(c1ccc(-c2ccc(Cl)cc2Cl)o1)N1CCOCC1", "Potency": "inconclusive: 0.355 µM [activator, full curve, poor fit]"}, {"smiles": "COc1ccc(S(=O)(=O)N2CCC(C(=O)NCC3CCCO3)CC2)cc1", "note": "(stereo not drawn)", "Potency": "inconclusive: 3.16 µM [inhibitor, single point]"}, {"smiles": "CCOC(=O)CSc1nc2c(c(=O)[nH]c(=O)n2C)n1CCCc1ccccc1", "activity change, negative = inhibition": "inactive: 1.65%"}, {"smiles": "O=C(Oc1ccc2ccc(=O)oc2c1)C1CCCCC1", "activity change, negative = inhibition": "inactive: -7.13%"}, {"smiles": "Cc1nc(-c2cccc(S(=O)(=O)N3CCC(C)CC3)c2)cs1", "Potency": "inconclusive: 35.5 µM [inhibitor, single point]"}, {"smiles": "CCOC(=O)c1c(-c2ccc(C)o2)csc1NC(=O)COC(=O)c1ccc(NC(N)=O)cc1", "Potency": "inconclusive: 5.62 µM [activator, single point]"}, {"smiles": "CCOC(=O)CCCNC(=O)CSc1nc2ccc(OCC)cc2[nH]1", "activity change, negative = inhibition": "inactive: 2.37%"}, {"smiles": "O=C(c1ccccc1)N1CCOC12CCN(c1ncc(C(F)(F)F)cc1Cl)CC2", "Potency": "inconclusive: 25.1 µM [inhibitor, single point]"}, {"smiles": "COc1cc(-c2n[nH]c(=S)n2-c2cc(C(F)(F)F)ccc2Cl)cc(OC)c1OC", "Potency": "inconclusive: 22.4 µM [activator, single point]"}, {"smiles": "Cc1ccc(Cl)cc1N(Cc1ccc(C(=O)NCc2cccnc2)cc1)S(=O)(=O)c1ccccc1", "Potency": "inconclusive: 35.5 µM [inhibitor, single point]"}]}]}
